Data published in patent US20250353909A1 (IMCHECK THERAPEUTICS, published 2025).
These are yes or no findings as the source states them, for the method shown. Some results given as binding are weak or reduced against the parent protein; the word gives no strength.

The chains behind the UniProt entries cited, without tags or fusion partners. Where a name states a change or a piece, a line headed by the entry shows the natural chain unless it says otherwise. Residues count along the entry.
UniProt O00481, residues 30-513: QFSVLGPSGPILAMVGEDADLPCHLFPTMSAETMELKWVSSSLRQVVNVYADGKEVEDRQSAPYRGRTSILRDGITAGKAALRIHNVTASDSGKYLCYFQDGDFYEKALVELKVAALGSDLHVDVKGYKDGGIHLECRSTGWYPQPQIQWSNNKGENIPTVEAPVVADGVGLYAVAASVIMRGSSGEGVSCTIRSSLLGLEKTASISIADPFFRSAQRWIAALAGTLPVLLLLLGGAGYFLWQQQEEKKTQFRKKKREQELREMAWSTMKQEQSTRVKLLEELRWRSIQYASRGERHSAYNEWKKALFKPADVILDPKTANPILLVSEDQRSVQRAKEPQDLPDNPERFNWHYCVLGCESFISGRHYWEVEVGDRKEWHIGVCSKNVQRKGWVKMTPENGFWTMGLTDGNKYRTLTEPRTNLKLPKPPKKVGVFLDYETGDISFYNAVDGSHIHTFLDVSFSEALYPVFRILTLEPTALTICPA

Tests used:
[1] = biological target: BTN3A1 antigen (Sino Biological cat. no. 15973-H08H) (human) (UniProt O00481); experiment: SPR Biacore
[2] = biological target: human BTN3A, endogenous on human cells (PBMCs; Daudi cells) (human) (UniProt O00481); experiment: flow cytometry on PBMCs
[3] = biological target: human BTN3A, endogenous on human cells (PBMCs; Daudi cells) (human) (UniProt O00481); experiment: flow cytometry on human PBMCs
[4] = biological target: BTN3A1 antigen (Sino Biological cat. no. 15973-H08H) (human) (UniProt O00481); experiment: SPR Biacore T200, multi-cycle kinetics

binding [1]: binds
binding [2]: binds
binding [3]: binds
binding [4]: binds
B1: 103.2 humanized variant VH4/Vκ4 (antibody, V domains shown)
VH: QVQMQQSGAEVKKPGASVKVSCKASGYAFTSYLIHWIKQRPGQGLEWIGVINPRSGDSHYNEKFKDRVTMTADQSISTAYMELSRLRSDDTAVYYCARSDYGAYWGQGTLVTVSS
VL: EIVLTQSPATLSVSPGERATLSCRASQSISNNLHWYQQKPGQAPRLLIKYASQSAFGIPARFSGSGSGTEFTLTISSLQSEDFAVYFCQQSNSWPHTFGQGTKLEIK
notes: also called H4K4; 103.2 VH4/V κ 4
